According to article PMC13483431, “Structure and mechanism of the HSV-1 origin-binding protein UL9” (Journal of Virology, 2025):
These are yes or no findings as the source states them, for the method shown.

The chains behind the UniProt entries cited, without tags or fusion partners. Residues count along the entry.
UniProt P10193, residues 536-851: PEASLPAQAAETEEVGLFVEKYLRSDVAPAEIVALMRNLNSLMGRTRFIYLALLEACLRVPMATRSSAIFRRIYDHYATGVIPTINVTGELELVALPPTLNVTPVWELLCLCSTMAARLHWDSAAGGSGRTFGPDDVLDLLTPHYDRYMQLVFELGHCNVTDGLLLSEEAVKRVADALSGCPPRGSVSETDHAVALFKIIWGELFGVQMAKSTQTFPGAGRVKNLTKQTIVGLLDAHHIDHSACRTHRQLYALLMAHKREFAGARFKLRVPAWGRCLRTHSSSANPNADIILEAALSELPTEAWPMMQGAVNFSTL

Target: His-tagged UL9 C-terminal domain (residues 536-851) (HSV-1) (UniProt P10193)
Test: SEC; purified UL9^CTD; Superdex 75 Increase 10/300 GL in Gel Filtration Buffer (20 mM HEPES, 300 mM NaCl, 1 mM DTT, pH 7.0); both purified

In the case of “His-tagged UL9 C-terminal domain (residues 536-851) (from UniProt P10193 536-851) (domain or fragment)”, the binding is reported as “no binding”.
